Results deposited as PubChem BioAssay AID1259254 (NCATS, 2017).
Shown is one part, drawn at random, of about 59,000 reagents tested. Of all reagents, about 1,550 (2.6%) were called active. 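G2 share is only a proxy for re-replication; each gene was hit by three separate siRNAs, and active genes were retested.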 Unmarked entries are inactive. The numbers tell different reagents against one gene apart. Further read-outs or replicates are left out here. Not stated in the record: the amount of reagent.

Purpose: 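Genome-wide screen for genes that prevent DNA re-replication in cancer cells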 (primary screen)
Cells: human HCT116 colorectal cancer cells
Reagents: single siRNA against human genes
Duration: 3 days
Detection: 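Imaged Hoechst DNA stain sorts each cell into a cycle phase by DNA amount; per plate, G2 fraction set to 0% for non-targeting and 100% for GMNN siRNA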
Scale: G2 robust z-score and G2 cells, % of GMNN control: higher = more G2 cells, more excess DNA replication
Call rule: 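An siRNA counts as active if its G2 robust z-score lies at least 5 MADs above the screen median; here such calls match roughly 38% of GMNN control or more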

TMEM41A #1 — G2 robust z-score: 0.552; G2 cells, % of GMNN control: 6.85
TMEM41A #2 — G2 robust z-score: -0.546; G2 cells, % of GMNN control: -0.872
TMEM41A #3 — G2 robust z-score: 0.0391; G2 cells, % of GMNN control: 3.24
CERS5 #1 — G2 robust z-score: 0.0115; G2 cells, % of GMNN control: 3.05
CERS5 #2 — G2 robust z-score: -0.44; G2 cells, % of GMNN control: -0.127
CERS5 #3 — G2 robust z-score: -0.779; G2 cells, % of GMNN control: -2.51
PRKCQ #1 — G2 robust z-score: -0.281; G2 cells, % of GMNN control: 0.988
PRKCQ #2 — G2 robust z-score: -0.522; G2 cells, % of GMNN control: -0.708
PRKCQ #3 — G2 robust z-score: -0.603; G2 cells, % of GMNN control: -1.27
RNASE1 #1 — G2 robust z-score: 1.15; G2 cells, % of GMNN control: 11.1
RNASE1 #2 — G2 robust z-score: -0.588; G2 cells, % of GMNN control: -1.17
RNASE1 #3 — G2 robust z-score: 0.698; G2 cells, % of GMNN control: 7.88
